# Reference: PubChem BioAssay AID540256 (National Center for Advancing Translational Sciences (NCATS), 2011)
# About 3,700 (1.2%) of roughly 300,000 compounds were called active. This list was built around the results that the source calls inconclusive (neither active nor inactive); the mix of calls is not that of the screen. Calls come from the whole dose curve; tested in HEK293 cells. A potency beside an inconclusive call is a rough fit, not a confirmed value.
# Experiment: qHTS for Inhibitors of binding or entry into cells for Lassa Virus; note: nearly all actives have a fitted effect of over 50% in size
# Settings: Lassa virus pseudotype entry inhibition, cell reporter; series mostly up to 37.9 µM
# Potency is the fitted concentration of half-maximal effect.
row,Compound,Potency
1,CCc1ccc(CNC(=O)c2cnc3sc(N4CCCC4)nn3c2=O)cc1,"inconclusive: 6.31 µM [inhibitor, partial curve, poor fit]"
2,COc1ccccc1C(=O)Nc1ccccc1OCc1cc(=O)n2c(C)csc2n1,inactive
3,CCN(CC)CCn1c2ccccc2c2n[nH]c(=S)nc21,"inconclusive: 5.62 µM [activator, full curve]"
4,Cc1ccc(NC(=S)N(CCC(C)C)C(C)c2ccncc2)c(Cl)c1 (centres undefined),"inconclusive: 11.2 µM [inhibitor, partial curve, poor fit]"
5,CN(Cc1ccc(F)cc1)C(=O)c1cccc(S(=O)(=O)N2CCN(c3ccc(F)cc3)CC2)c1,"inconclusive: 5.62 µM [inhibitor, partial curve, poor fit]"
6,O=C(c1ccc(Cl)cc1)c1cnc(Nc2ccccc2)s1,"inconclusive: 13 µM [activator, partial curve, poor fit]"
7,CC1=NN(c2ccccc2)C(=O)/C1=C\C=C1/N(C)c2ccccc2C1(C)C,"inconclusive: 35.5 µM [inhibitor, single point]"
8,CCOC(=O)C1(Cc2ccccc2)CCCN(C(=O)c2cnn(CC)c2)C1 (centres undefined),inactive
9,COc1ccc(CNC(=O)c2ccc(-c3nc(CSc4ccccc4)c(C)o3)cc2)cc1OC,inactive
10,COc1ccc(Nc2ccc3c(c2)=NC2(CCCCC2)[N+]=3[O-])cc1,"inconclusive: 35.5 µM [inhibitor, single point]"
11,Cc1ccc(NC(=O)CSc2ccccc2)cc1S(=O)(=O)N1CCCCC1,"inconclusive: 22.4 µM [inhibitor, single point]"
12,CC(C)NC(=O)c1ccc(-c2ccccc2C(F)(F)F)o1,"inconclusive: 32.6 µM [inhibitor, single point]"
13,Cc1ccc(-n2c(Cc3cccs3)nnc2SCC(=O)Nc2ccc(S(N)(=O)=O)cc2)cc1,"inconclusive: 18.3 µM [inhibitor, partial curve, poor fit]"
14,COc1ccc(/C=C2\Sc3ccc(C(=O)NCC4CCCO4)cc3N(C)C2=O)cc1 (centres undefined),"inconclusive: 7.08 µM [inhibitor, partial curve, poor fit]"
15,COC(=O)CC1(C(=O)OC)Oc2ccc(Br)cc2C(=O)N1c1cccc(Cl)c1Cl (centres undefined),"inconclusive: 15.8 µM [inhibitor, single point]"
16,COC(=O)c1c(-c2ccccc2)csc1NC(=O)c1c(-c2ccccc2)noc1C,active: 0.891 µM
17,COc1ccc(-c2ccc3c(N)c(C(=O)c4ccc(OC)c(OC)c4)sc3n2)cc1,"inconclusive: 6.31 µM [inhibitor, single point]"
18,N#C/C(=C/c1ccccc1[N+](=O)[O-])c1nc(C2CC2)cs1,inactive
19,COc1ccc(/C=N/n2c(N)nc3ccccc32)cc1OC,inactive
20,CN(C)S(=O)(=O)c1ccc(C(=O)OCC(=O)c2ccc(OC(F)F)cc2OC(F)F)cc1,"inconclusive: 2.51 µM [inhibitor, partial curve, poor fit]"
21,CCN(c1ccccc1)S(=O)(=O)c1ccc(Cl)c(NC(=O)COC(=O)c2cccc(OC)c2O)c1,inactive
22,N#Cc1c(Nc2ccccc2)[n+]([O-])c2ccc(Cl)cc2[n+]1[O-],active: 3.16 µM

row,Compound,Potency
1,Cc1cc(C)c(S(=O)(=O)N2CCCCC2CCNC(=O)C(=O)NCC2CCCO2)c(C)c1 (centres undefined),"inconclusive: 3.16 µM [inhibitor, partial curve, poor fit]"
2,COc1ccc(CN2CCc3c(c(=O)n4ncc(C(=O)N5CCN(c6ccccc6OC)CC5)c4n3C)C2)cc1,"inconclusive: 4.47 µM [inhibitor, single point]"
3,Cc1cccc(NC(=O)Cn2nnc(-c3nc(-c4ccncc4)no3)c2N)c1,"inconclusive: 3.16 µM [activator, partial curve, poor fit]"
4,O=C(COC(=O)CNC(=O)c1ccco1)Nc1ccc(F)cc1,"inconclusive: 12.6 µM [inhibitor, single point]"
5,COc1ccc(NC(=S)NCCN2CCC(C)CC2)cc1Cl,"inconclusive: 8.91 µM [inhibitor, partial curve, poor fit]"
6,COc1cc(SC)ccc1C(=O)Nc1ccc(S(=O)(=O)Nc2nccc(C)n2)cc1,"inconclusive: 6.31 µM [inhibitor, single point]"
7,COc1ccc(-c2cc(-c3ccccc3)c(C#N)c(SCC(O)CS(=O)(=O)Cc3ccc(Cl)cc3)n2)cc1 (centres undefined),"inconclusive: 6.31 µM [inhibitor, full curve]"
8,Cc1nn(-c2c(Cl)cc(Cl)cc2Cl)c(=O)c2ccccc12,"inconclusive: 20 µM [inhibitor, partial curve, poor fit]"
9,O=C(NN=C1c2ccccc2-c2ccccc21)c1ccccc1Br,"inconclusive: 23.1 µM [inhibitor, single point]"
10,CC(=O)Nc1nonc1-c1nnc(SCC(=O)Nc2ccc(C)cc2)n1-c1ccccc1,"inconclusive: 15.8 µM [inhibitor, partial curve, poor fit]"
11,COC(=O)c1ccccc1NC(=O)c1cc(-c2ccccc2O)no1,"inconclusive: 7.08 µM [inhibitor, partial curve, poor fit]"
12,CCCN(CC(=O)Nc1ccccc1C)C(=O)CCCc1c[nH]c2ccccc12,"inconclusive: 35.5 µM [inhibitor, partial curve, poor fit]"
13,O=S(=O)(c1ccc(-c2cc(C(F)(F)F)on2)s1)N1CCN(c2ccccc2F)CC1,"inconclusive: 7.94 µM [activator, partial curve]"
14,Cc1cc(O)c(C(C)C)cc1NC(=S)Nc1cc(C(C)C)c(O)cc1C,"inconclusive: 22.4 µM [inhibitor, single point]"
15,Fc1ccc(N2Cc3ccsc3C=N2)cc1,inactive
16,C=CCn1c(O)c(N=NC(=S)Nc2ccc(OC)c(Cl)c2)c2ccccc21,"inconclusive: 14.6 µM [inhibitor, partial curve, poor fit]"
17,CC(C)Cn1cnc2c(SCc3ccccc3F)nc(N)nc21,"inconclusive: 35.5 µM [inhibitor, single point]"
18,Cc1cc(C)n(-c2nc(Nc3ccccc3C(F)(F)F)nc(-n3nc(C)cc3C)n2)n1,"inconclusive: 14.1 µM [inhibitor, single point]"
19,Cc1ccccc1Nc1nc(N)nc(COC(=O)CCNS(=O)(=O)c2ccccc2)n1,"inconclusive: 35.5 µM [inhibitor, single point]"
20,Cc1ccc2c(c1)c1nnc(SCC(=O)Nc3ccccc3C(F)(F)F)nc1n2CC(=O)O,"inconclusive: 2.24 µM [inhibitor, full curve]"
21,COCCN(C(=O)COC(=O)CCS(=O)(=O)c1ccccc1)c1c(N)n(Cc2ccccc2)c(=O)[nH]c1=O,"inconclusive: 14.1 µM [activator, single point]"
22,O=Cc1ccc(N2CCCC2)c([N+](=O)[O-])c1,"inconclusive: 6.31 µM [inhibitor, single point]"

row,Compound,Potency
1,CC1CCN(C(=S)c2cn(Cc3ccccc3F)c3ccccc23)CC1,"inconclusive: 0.517 µM [activator, partial curve, poor fit]"
2,COc1ccccc1-n1nnnc1S(=O)(=O)Cc1ccc(Cl)cc1,"inconclusive: 14.1 µM [inhibitor, single point]"
3,COc1ccccc1N1CCN(c2nccc(C)n2)CC1,inactive
4,O=C(CCc1c[nH]c2ccccc12)NCCOc1ccccc1,"inconclusive: 20 µM [inhibitor, single point]"
5,CC(=O)c1sc(N2CCOCC2)nc1-c1ccccc1,"inconclusive: 3.16 µM [inhibitor, partial curve, poor fit]"
6,Cc1ccc(N/C(=C\C(=O)c2ccccc2)C(=O)O)cc1,inactive
7,COc1ccc(CN(C)C(=O)c2ccc(Oc3ccccc3)cc2)cc1F,"inconclusive: 3.16 µM [inhibitor, partial curve, poor fit]"
8,O=c1cc(-c2ccccc2)[nH]n1-c1nc2ccccc2[nH]1,"inconclusive: 35.5 µM [inhibitor, single point]"
9,CCn1cc(Br)c(-c2nc3ccccc3c(=O)n2N)n1,inactive
10,COc1ccccc1-c1nn2c(-c3ccco3)nnc2s1,inactive
11,CCC(C(=O)OCC(=O)Nc1cc(C)ccc1OC)c1ccccc1 (centres undefined),"inconclusive: 20 µM [inhibitor, single point]"
12,O=C(NCCCO)c1cc2c([nH]c3ccccc32)c(-c2ccccc2)n1,inactive
13,Cc1ccc(NC(=O)/C=C/c2ccco2)nc1,"inconclusive: 11.2 µM [inhibitor, partial curve, poor fit]"
14,O=C(CN1CCCC1)Nc1sc2c(c1C(=O)Nc1ccccc1)CCCC2,"inconclusive: 6.31 µM [activator, single point]"
15,O=C(NCCn1cccc1)c1cccc2ccccc12,inactive
16,COc1ccc(OCC(O)CN(C2CCCCC2)C2CCCCC2)cc1 (centres undefined),active: 14.6 µM
17,CCOC(=O)C1CCCN1C(=O)c1ccc(OC)c(Br)c1 (centres undefined),"inconclusive: 7.08 µM [activator, partial curve, poor fit]"
18,COc1ccc(S(=O)(=O)NCc2ccc3c(c2)CCN3C(=O)c2ccccc2)cc1OC,inactive
19,COc1ccc(N(C(=O)c2cnccn2)C(C(=O)NC2CCCCC2)c2ccc(O)cc2)cc1 (centres undefined),"inconclusive: 7.94 µM [inhibitor, partial curve, poor fit]"
20,COc1ccc(OCC(O)Cn2c(N3CCCCC3)nc3c2c(=O)n(C)c(=O)n3C)cc1 (centres undefined),"inconclusive: 8.91 µM [inhibitor, partial curve, poor fit]"

# 13 entries from above in another layout.
row	Compound	Potency
1	CC1CCN(C(=S)c2cn(Cc3ccccc3F)c3ccccc23)CC1	inconclusive: 0.517 µM [activator, partial curve, poor fit]
3	COc1ccccc1N1CCN(c2nccc(C)n2)CC1	inactive
5	CC(=O)c1sc(N2CCOCC2)nc1-c1ccccc1	inconclusive: 3.16 µM [inhibitor, partial curve, poor fit]
6	Cc1ccc(N/C(=C\C(=O)c2ccccc2)C(=O)O)cc1	inactive
9	CCn1cc(Br)c(-c2nc3ccccc3c(=O)n2N)n1	inactive
10	COc1ccccc1-c1nn2c(-c3ccco3)nnc2s1	inactive
11	CCC(C(=O)OCC(=O)Nc1cc(C)ccc1OC)c1ccccc1 (centres undefined)	inconclusive: 20 µM [inhibitor, single point]
12	O=C(NCCCO)c1cc2c([nH]c3ccccc32)c(-c2ccccc2)n1	inactive
13	Cc1ccc(NC(=O)/C=C/c2ccco2)nc1	inconclusive: 11.2 µM [inhibitor, partial curve, poor fit]
14	O=C(CN1CCCC1)Nc1sc2c(c1C(=O)Nc1ccccc1)CCCC2	inconclusive: 6.31 µM [activator, single point]
16	COc1ccc(OCC(O)CN(C2CCCCC2)C2CCCCC2)cc1 (centres undefined)	active: 14.6 µM
18	COc1ccc(S(=O)(=O)NCc2ccc3c(c2)CCN3C(=O)c2ccccc2)cc1OC	inactive
19	COc1ccc(N(C(=O)c2cnccn2)C(C(=O)NC2CCCCC2)c2ccc(O)cc2)cc1 (centres undefined)	inconclusive: 7.94 µM [inhibitor, partial curve, poor fit]

# Random excerpt: 2 records from the list, in no set order.
row,Compound,Potency
2,COc1ccc(CN2CCc3c(c(=O)n4ncc(C(=O)N5CCN(c6ccccc6OC)CC5)c4n3C)C2)cc1,"inconclusive: 4.47 µM [inhibitor, single point]"
5,COc1ccc(NC(=S)NCCN2CCC(C)CC2)cc1Cl,"inconclusive: 8.91 µM [inhibitor, partial curve, poor fit]"
